# Measurements: the supplement of paper PMC8728848
# Some of the results follow.
# B1: Epa2 (Candida glabrata) (protein)
# chain: MGSSHHHHHHSSGLVPRGSHMASSKDPTSFPMGCSPQVLKTQPGLAVKLYSYGHPVPGCAYNTYQYPDFPRSGYKKERKLADITGVNGRIDIDLKPNDPCRVLSGNLPSNYNYQNTLTYTNFTMILYGYFQPKVTGYHTFNLEADDLLFMNLGAGNAFDCCRAESTLDNFGNYQSYSIWGTDKATADLTVFLVSGIYYPIRLFYVNRDNNAVLDFSFSTEFNKEIIHDFTSYFFSASDEEQCPGNI
# Key:
# Assay in all cases: glycan array binding signal (z-score within array); higher = stronger binding
# Details in all cases: glycan notation: IUPAC condensed, linker removed
# Gal3S4S(b1-4)GlcNAc = molecular target: Gal3S4S(b1-4)GlcNAc
# In short: (§1)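 Glycan array binding is given as a within-array Z-score, which can be read as non-binding when negative. The arrays, 3228 of them, came from the Consortium for Functional Glycomics database and were retained only where the protein sequence was available. Z-scores were averaged across arrays of the same protein sequence at different concentrations or buffers and across linkers.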
# Gal3S6S(b1-4)GlcNAc = molecular target: Gal3S6S(b1-4)GlcNAc
# In short: as §1
# Gal3S6S(b1-4)GlcNAc6S = molecular target: Gal3S6S(b1-4)GlcNAc6S
# In short: as §1
# Gal4S(b1-4)GlcNAc = molecular target: Gal4S(b1-4)GlcNAc
# In short: as §1
# Gal4S6S(b1-4)GlcNAc = molecular target: Gal4S6S(b1-4)GlcNAc
# In short: as §1
# Gal6P(b1-4)GlcNAc = molecular target: Gal6P(b1-4)GlcNAc
# In short: as §1
# Gal6S(b1-3)GlcNAc = molecular target: Gal6S(b1-3)GlcNAc
# In short: as §1
# Gal6S(b1-3)GlcNAc6S = molecular target: Gal6S(b1-3)GlcNAc6S
# In short: as §1
# Gal6S(b1-4)Glc = molecular target: Gal6S(b1-4)Glc
# In short: as §1
# Gal6S(b1-4)Glc6S = molecular target: Gal6S(b1-4)Glc6S
# In short: as §1
# Gal6S(b1-4)GlcNAc = molecular target: Gal6S(b1-4)GlcNAc
# In short: as §1
# Gal6S(b1-4)GlcNAc6S = molecular target: Gal6S(b1-4)GlcNAc6S
# In short: as §1
# GalNAc(a1-3)Gal = molecular target: GalNAc(a1-3)Gal
# In short: as §1
# GalNAc(a1-3)GalNAc = molecular target: GalNAc(a1-3)GalNAc
# In short: as §1
# [1] = molecular target: GalNAc(a1-3)GalNAc(b1-3)Gal(a1-4)Gal(b1-4)Glc
# In short: as §1
# [2] = molecular target: GalNAc(a1-3)GalNAc(b1-3)Gal(a1-4)Gal(b1-4)GlcNAc
# In short: as §1
# GalNAc(b1-3)Gal = molecular target: GalNAc(b1-3)Gal
# In short: as §1
# [3] = molecular target: GalNAc(b1-3)Gal(a1-4)Gal(b1-4)GlcNAc
# In short: as §1
# [4] = molecular target: GalNAc(b1-3)Gal(a1-4)Gal(b1-4)GlcNAc(b1-3)Gal(b1-4)Glc
# In short: as §1
# [5] = molecular target: GalNAc(b1-3)Gal(a1-6)Gal(b1-4)Glc
# In short: as §1
# GalNAc(b1-3)GalNAc = molecular target: GalNAc(b1-3)GalNAc
# In short: as §1
# GalNAc(b1-3)GlcNAc = molecular target: GalNAc(b1-3)GlcNAc
# In short: as §1
# GalNAc(b1-4)Gal(b1-4)Glc = molecular target: GalNAc(b1-4)Gal(b1-4)Glc
# In short: as §1
# GalNAc(b1-4)GlcNAc = molecular target: GalNAc(b1-4)GlcNAc
# In short: as §1
# [6] = molecular target: GalNAc(b1-4)GlcNAc(b1-2)Man
# In short: as §1
# [7] = molecular target: GalNAc(b1-4)GlcNAc(b1-2)Man(a1-3)[GalNAc(b1-4)GlcNAc(b1-2)Man(a1-6)]Man(b1-4)GlcNAc(b1-4)GlcNAc
# In short: as §1
# [8] = molecular target: GalNAc(b1-4)GlcNAc(b1-3)GalNAc(b1-4)GlcNAc
# In short: as §1
# GalNAc(b1-4)GlcNAc6S = molecular target: GalNAc(b1-4)GlcNAc6S
# In short: as §1
# GalNAc(b1-6)GalNAc = molecular target: GalNAc(b1-6)GalNAc
# In short: as §1
# GalNAc3S(b1-4)GlcNAc = molecular target: GalNAc3S(b1-4)GlcNAc
# In short: as §1
# GalNAc3S(b1-4)GlcNAc3S = molecular target: GalNAc3S(b1-4)GlcNAc3S
# In short: as §1
# [9] = molecular target: GalNAc3S(b1-4)[Fuc(a1-3)]GlcNAc
# In short: as §1
# GalNAc4S6S(b1-4)GlcNAc = molecular target: GalNAc4S6S(b1-4)GlcNAc
# In short: as §1
# GalNAc6S(b1-4)GlcNAc = molecular target: GalNAc6S(b1-4)GlcNAc
# In short: as §1
# Glc(a1-4)Glc = molecular target: Glc(a1-4)Glc
# In short: as §1
# [10] = molecular target: Glc(a1-4)Glc(a1-4)Glc(a1-4)Glc
# In short: as §1
# Glc(a1-6)Glc(a1-6)Glc = molecular target: Glc(a1-6)Glc(a1-6)Glc
# In short: as §1
# [11] = molecular target: Glc(a1-6)Glc(a1-6)Glc(a1-6)Glc
# In short: as §1
binder,measurement,setting,value
B1,glycan array binding signal (z-score),Gal3S4S(b1-4)GlcNAc,-0.29
same,glycan array binding signal (z-score),Gal3S6S(b1-4)GlcNAc,0.268
same,glycan array binding signal (z-score),Gal3S6S(b1-4)GlcNAc6S,2.14
same,glycan array binding signal (z-score),Gal4S(b1-4)GlcNAc,-0.316
same,glycan array binding signal (z-score),Gal4S6S(b1-4)GlcNAc,0.784
same,glycan array binding signal (z-score),Gal6P(b1-4)GlcNAc,-0.469
same,glycan array binding signal (z-score),Gal6S(b1-3)GlcNAc,-0.535
same,glycan array binding signal (z-score),Gal6S(b1-3)GlcNAc6S,0.048
same,glycan array binding signal (z-score),Gal6S(b1-4)Glc,-0.278
same,glycan array binding signal (z-score),Gal6S(b1-4)Glc6S,1.75
same,glycan array binding signal (z-score),Gal6S(b1-4)GlcNAc,-0.59
same,glycan array binding signal (z-score),Gal6S(b1-4)GlcNAc6S,2.81
same,glycan array binding signal (z-score),GalNAc(a1-3)Gal,-0.314
same,glycan array binding signal (z-score),GalNAc(a1-3)GalNAc,-0.524
same,glycan array binding signal (z-score),[1],-0.947
same,glycan array binding signal (z-score),[2],0.18
same,glycan array binding signal (z-score),GalNAc(b1-3)Gal,-0.1
same,glycan array binding signal (z-score),[3],0.236
same,glycan array binding signal (z-score),[4],1.03
same,glycan array binding signal (z-score),[5],0.4
same,glycan array binding signal (z-score),GalNAc(b1-3)GalNAc,-0.673
same,glycan array binding signal (z-score),GalNAc(b1-3)GlcNAc,-0.359
same,glycan array binding signal (z-score),GalNAc(b1-4)Gal(b1-4)Glc,0.342
same,glycan array binding signal (z-score),GalNAc(b1-4)GlcNAc,0.685
same,glycan array binding signal (z-score),[6],-0.305
same,glycan array binding signal (z-score),[7],0.305
same,glycan array binding signal (z-score),[8],0.622
same,glycan array binding signal (z-score),GalNAc(b1-4)GlcNAc6S,1.21
same,glycan array binding signal (z-score),GalNAc(b1-6)GalNAc,-0.851
same,glycan array binding signal (z-score),GalNAc3S(b1-4)GlcNAc,0.304
same,glycan array binding signal (z-score),GalNAc3S(b1-4)GlcNAc3S,0.541
same,glycan array binding signal (z-score),[9],0.25
same,glycan array binding signal (z-score),GalNAc4S6S(b1-4)GlcNAc,0.176
same,glycan array binding signal (z-score),GalNAc6S(b1-4)GlcNAc,0.17
same,glycan array binding signal (z-score),Glc(a1-4)Glc,-0.167
same,glycan array binding signal (z-score),[10],0.96
same,glycan array binding signal (z-score),Glc(a1-6)Glc(a1-6)Glc,-0.714
same,glycan array binding signal (z-score),[11],-0.332

# Retrieved one by one from above:
binder,measurement,setting,value
B1,glycan array binding signal (z-score),[6],-0.305
same,glycan array binding signal (z-score),[4],1.03
same,glycan array binding signal (z-score),GalNAc(b1-4)GlcNAc,0.685
